Measurements reported in PubChem BioAssay AID1224829 (NIAID, 2016)
Purpose: 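Secondary check of hits that alter LPS-induced p65 translocation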 (follow-up of hits). System: mouse RAW264.7 G9 macrophage reporter cells. Reagent: single siRNA against mouse genes, 100 nM. Timing: 2 days of siRNA knock-down, then 40 min of LPS before fixing. Conditions: LPS (Salmonella minnesota R595) at 10 ng/ml. Measured: 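Imaging of GFP-p65 after 40 min of LPS; nuclear over perinuclear ring intensity ratio, scaled to plate median and non-targeting control wells, given as z-score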. Scale: p65 translocation z-score: higher = more nuclear NF-kappaB p65 after LPS. Hit rule: 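Active means the replicate-mean z-score lies beyond plus or minus 2, in either direction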. Meaning of the calls: active = changed p65 translocation (either direction); inactive = no clear change.
Shown is a random part of about 3,800 deposited reagents. 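Calls cover raised and lowered translocation; gene median uses one vendor's three siRNAs; qiagen siRNAs acted more weakly than ambion siRNAs.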 Reagents against one gene are numbered here. Further read-outs or replicates are left out here.

A730013G03Rik (RIKEN cDNA A730013G03 gene) #1, siRNA vendor or control pool ambion single siRNA
- p65 translocation z-score, replicate mean: -2
- call: active

A730013G03Rik (RIKEN cDNA A730013G03 gene) #2, siRNA vendor or control pool ambion single siRNA
- p65 translocation z-score, replicate mean: 2.86
- call: active

A730013G03Rik (RIKEN cDNA A730013G03 gene) #3, siRNA vendor or control pool ambion single siRNA
- p65 translocation z-score, replicate mean: -1.04
- call: inactive

A730013G03Rik (RIKEN cDNA A730013G03 gene) #4, siRNA vendor or control pool qiagen single siRNA
- p65 translocation z-score, replicate mean: 1.38
- call: inactive

A730013G03Rik (RIKEN cDNA A730013G03 gene) #5, siRNA vendor or control pool qiagen single siRNA
- p65 translocation z-score, replicate mean: 0.803
- call: inactive

A730013G03Rik (RIKEN cDNA A730013G03 gene) #6, siRNA vendor or control pool qiagen single siRNA
- p65 translocation z-score, replicate mean: -1.49
- call: inactive

2 of these entries, reformatted:
{"Gene": "A730013G03Rik (RIKEN cDNA A730013G03 gene)", "reagent": 5, "siRNA vendor or control pool": "qiagen single siRNA", "p65 translocation z-score, replicate mean": 0.803, "call": "inactive"}
{"Gene": "A730013G03Rik (RIKEN cDNA A730013G03 gene)", "reagent": 6, "siRNA vendor or control pool": "qiagen single siRNA", "p65 translocation z-score, replicate mean": -1.49, "call": "inactive"}

Additional entries:
Cercam (cerebral endothelial cell adhesion molecule) #1, siRNA vendor or control pool ambion single siRNA
- p65 translocation z-score, replicate mean: -0.00229
- call: inactive

Cercam (cerebral endothelial cell adhesion molecule) #2, siRNA vendor or control pool ambion single siRNA
- p65 translocation z-score, replicate mean: -2.75
- call: active

Cercam (cerebral endothelial cell adhesion molecule) #3, siRNA vendor or control pool ambion single siRNA
- p65 translocation z-score, replicate mean: -1.41
- call: inactive

Cercam (cerebral endothelial cell adhesion molecule) #4, siRNA vendor or control pool qiagen single siRNA
- p65 translocation z-score, replicate mean: 0.989
- call: inactive

Cercam (cerebral endothelial cell adhesion molecule) #5, siRNA vendor or control pool qiagen single siRNA
- p65 translocation z-score, replicate mean: -0.599
- call: inactive

Cercam (cerebral endothelial cell adhesion molecule) #6, siRNA vendor or control pool qiagen single siRNA
- p65 translocation z-score, replicate mean: -2.6
- call: active
